Experimental data taken from publication PMC12314576, “The Actin‐Binding Prolyl‐Isomerase Par17 Sustains Its Substrate Selectivity by Interdomain Allostery” (Proteins, 2025).
These are yes or no findings as the source states them, for the method shown. Some binding calls cover weakened binding; strength is not graded here.

Assays:
Assay in all cases: peptide or protein array; 12-mers of β-actin (2 amino acids per step) SPOT-synthesised on cellulose membranes, blocked with 5% BSA in PBS, incubated overnight with Atto594-labeled Par14 or Par17, washed with PBS, fluorescence imaged; runs of three or more spots classified as possible binding sites; both purified
β-actin 12-mer, spot I2 = biological target: T1, β-actin 12-mer, spot I2
T1 sequence (peptide): EAQSKRGILTLK

β-actin 12-mer, spot Q1 = biological target: T2, β-actin 12-mer, spot Q1
T2 sequence (peptide): SIVGRPRHQGVM

β-actin 12-mer, spot L4 = biological target: T3, β-actin 12-mer, spot L4
T3 sequence (peptide): YASGRTTGIVMD

β-actin 12-mer, spot G7 = biological target: T4, β-actin 12-mer, spot G7
T4 sequence (peptide): ERFRCPEALFQP

β-actin 12-mer, spot O9 = biological target: T5, β-actin 12-mer, spot O9
T5 sequence (peptide): LSTFQQMWISKQ

β-actin 12-mer, spot C7 = biological target: T6, β-actin 12-mer, spot C7
T6 sequence (peptide): GQVITIGNERFR

β-actin 12-mer, spot C3 = biological target: T7, β-actin 12-mer, spot C3
T7 sequence (peptide): IWHHTFYNELRV

β-actin 12-mer, spot D5 = biological target: T8, β-actin 12-mer, spot D5
T8 sequence (peptide): EGYALPHAILRL

β-actin 12-mer, spot G9 = biological target: T9, β-actin 12-mer, spot G9
T9 sequence (peptide): PERKYSVWIGGS

β-actin 12-mer, spot R5 = biological target: T10, β-actin 12-mer, spot R5
T10 sequence (peptide): ERGYSFTTTAER

β-actin 12-mer, spot P9 = biological target: T11, β-actin 12-mer, spot P9
T11 sequence (peptide): TFQQMWISKQEY

β-actin 12-mer, spot H9 = biological target: T12, β-actin 12-mer, spot H9
T12 sequence (peptide): RKYSVWIGGSIL

β-actin 12-mer, spot O1 = biological target: T13, β-actin 12-mer, spot O1
T13 sequence (peptide): AVFPSIVGRPRH

β-actin 12-mer, spot O5 = biological target: T14, β-actin 12-mer, spot O5
T14 sequence (peptide): LMKILTERGYSF

β-actin 12-mer, spot P1 = biological target: T15, β-actin 12-mer, spot P1
T15 sequence (peptide): FPSIVGRPRHQG

β-actin 12-mer, spot H2 = biological target: T16, β-actin 12-mer, spot H2
T16 sequence (peptide): GDEAQSKRGILT

β-actin 12-mer, spot H7 = biological target: T17, β-actin 12-mer, spot H7
T17 sequence (peptide): FRCPEALFQPSF

β-actin 12-mer, spot L8 = biological target: T18, β-actin 12-mer, spot L8
T18 sequence (peptide): TTMYPGIADRMQ

Measured: binding

Atto594-labeled Par17 (from UniProt Q9Y237-2 3-156) (enzyme)
binds: β-actin 12-mer, spot I2 | β-actin 12-mer, spot Q1 | β-actin 12-mer, spot L4 | β-actin 12-mer, spot G7 | β-actin 12-mer, spot O9 | β-actin 12-mer, spot C7 | β-actin 12-mer, spot C3 | β-actin 12-mer, spot D5 | β-actin 12-mer, spot G9 | β-actin 12-mer, spot R5 | β-actin 12-mer, spot P9 | β-actin 12-mer, spot H9 | β-actin 12-mer, spot O1 | β-actin 12-mer, spot O5 | β-actin 12-mer, spot P1 | β-actin 12-mer, spot H2 | β-actin 12-mer, spot H7 | β-actin 12-mer, spot L8
